Measured data: PubChem BioAssay AID1224829 (NIAID, 2016)
In all, the deposit lists about 3,800 reagents; this is a part drawn at random. 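Calls cover raised and lowered translocation; gene median uses one vendor's three siRNAs; qiagen siRNAs acted more weakly than ambion siRNAs.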 The numbers tell different reagents against one gene apart. Not all columns of the deposit are shown.

Screen: 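Genes needed for LPS-driven NF-kappaB p65 nuclear entry in mouse macrophages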 (follow-up of hits)
System: mouse RAW264.7 G9 macrophage reporter cells
Knock-down reagent: single siRNA against mouse genes, 100 nM
Time to read-out: 2 days of siRNA knock-down, then 40 min of LPS before fixing
Challenge: LPS (Salmonella minnesota R595) at 10 ng/ml
Read-out: 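High-content images after 40 min LPS exposure; GFP-p65 nucleus to surrounding ring signal ratio, normalised to plate median and non-targeting control wells, expressed as z-score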
Direction: p65 translocation z-score: higher = more nuclear NF-kappaB p65 after LPS
Active means: 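Active means the replicate-mean z-score lies beyond plus or minus 2, in either direction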
Meaning of the calls: active = changed p65 translocation (either direction); inactive = no clear change

For Hsd17b6 #1, siRNA vendor or control pool ambion single siRNA, the values are p65 translocation z-score, replicate mean 0.942; inactive. With Hsd17b6 #2, siRNA vendor or control pool ambion single siRNA, the values are p65 translocation z-score, replicate mean -1.35; inactive. Hsd17b6 #3, siRNA vendor or control pool ambion single siRNA gave p65 translocation z-score, replicate mean -2.81; active. With Hsd17b6 #4, siRNA vendor or control pool qiagen single siRNA, the values are p65 translocation z-score, replicate mean 0.921; inactive. Hsd17b6 #5, siRNA vendor or control pool qiagen single siRNA showed p65 translocation z-score, replicate mean -0.657; inactive. Hsd17b6 #6, siRNA vendor or control pool qiagen single siRNA gave p65 translocation z-score, replicate mean -1.24; inactive.

Cfb #1, siRNA vendor or control pool ambion single siRNA scored p65 translocation z-score, replicate mean 0.926; inactive. For Cfb #2, siRNA vendor or control pool ambion single siRNA, the values are p65 translocation z-score, replicate mean -0.194; inactive. With Cfb #3, siRNA vendor or control pool ambion single siRNA, the entry reads p65 translocation z-score, replicate mean -3.54; active. Cfb #4, siRNA vendor or control pool qiagen single siRNA scored p65 translocation z-score, replicate mean -0.114; inactive. For Cfb #5, siRNA vendor or control pool qiagen single siRNA, the values are p65 translocation z-score, replicate mean -0.23; inactive. Cfb #6, siRNA vendor or control pool qiagen single siRNA scored p65 translocation z-score, replicate mean -2.38; active.

With H2ac25 #1, siRNA vendor or control pool ambion single siRNA, the values are p65 translocation z-score, replicate mean 2.12; active. With H2ac25 #2, siRNA vendor or control pool ambion single siRNA, the values are p65 translocation z-score, replicate mean 0.0174; inactive. H2ac25 #3, siRNA vendor or control pool ambion single siRNA showed p65 translocation z-score, replicate mean -2.58; active. With H2ac25 #4, siRNA vendor or control pool qiagen single siRNA, the entry reads p65 translocation z-score, replicate mean 3.34; active. H2ac25 #5, siRNA vendor or control pool qiagen single siRNA gave p65 translocation z-score, replicate mean -0.437; inactive. H2ac25 #6, siRNA vendor or control pool qiagen single siRNA gave p65 translocation z-score, replicate mean 0.434; inactive.

For Mpzl3 #1, siRNA vendor or control pool ambion single siRNA, the values are p65 translocation z-score, replicate mean 0.816; inactive. With Mpzl3 #2, siRNA vendor or control pool ambion single siRNA the deposit lists p65 translocation z-score, replicate mean -5.2; active. With Mpzl3 #3, siRNA vendor or control pool ambion single siRNA, the entry reads p65 translocation z-score, replicate mean -1.31; inactive. With Mpzl3 #4, siRNA vendor or control pool qiagen single siRNA, the values are p65 translocation z-score, replicate mean -2.2; active. For Mpzl3 #5, siRNA vendor or control pool qiagen single siRNA, the values are p65 translocation z-score, replicate mean 5.14; active. Mpzl3 #6, siRNA vendor or control pool qiagen single siRNA scored p65 translocation z-score, replicate mean -2.53; active.

Copied from above (3 entries):
Cfb #5, siRNA vendor or control pool qiagen single siRNA — p65 translocation z-score, replicate mean: -0.23; call: inactive
Cfb #6, siRNA vendor or control pool qiagen single siRNA — p65 translocation z-score, replicate mean: -2.38; call: active
H2ac25 #1, siRNA vendor or control pool ambion single siRNA — p65 translocation z-score, replicate mean: 2.12; call: active

The list goes on.
Gabrb1 #1, siRNA vendor or control pool ambion single siRNA showed p65 translocation z-score, replicate mean 1.02; inactive. Gabrb1 #2, siRNA vendor or control pool ambion single siRNA showed p65 translocation z-score, replicate mean 0.956; inactive. Gabrb1 #3, siRNA vendor or control pool ambion single siRNA scored p65 translocation z-score, replicate mean -2.42; active. Gabrb1 #4, siRNA vendor or control pool qiagen single siRNA gave p65 translocation z-score, replicate mean -0.453; inactive. Gabrb1 #5, siRNA vendor or control pool qiagen single siRNA gave p65 translocation z-score, replicate mean 3.25; active. Gabrb1 #6, siRNA vendor or control pool qiagen single siRNA gave p65 translocation z-score, replicate mean 1.87; inactive.

For Tnfsf14 #1, siRNA vendor or control pool ambion single siRNA, the values are p65 translocation z-score, replicate mean 2.48; active. Tnfsf14 #2, siRNA vendor or control pool ambion single siRNA showed p65 translocation z-score, replicate mean 0.793; inactive. Tnfsf14 #3, siRNA vendor or control pool ambion single siRNA gave p65 translocation z-score, replicate mean -3.2; active. Tnfsf14 #4, siRNA vendor or control pool qiagen single siRNA showed p65 translocation z-score, replicate mean -0.493; inactive. With Tnfsf14 #5, siRNA vendor or control pool qiagen single siRNA, the entry reads p65 translocation z-score, replicate mean -1.85; inactive. Tnfsf14 #6, siRNA vendor or control pool qiagen single siRNA scored p65 translocation z-score, replicate mean -3.37; active.
